{
  "source": "the supplement of paper PMC8728848",
  "assay_in_all_cases": "glycan array binding signal (z-score within array); higher = stronger binding",
  "details_in_all_cases": "glycan notation: IUPAC condensed, linker removed",
  "key": {"[1]": {"target": "Fuc(a1-2)[Gal(a1-3)]Gal(b1-4)Glc", "in_short": "(§1)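 Glycan array binding is given as a within-array Z-score, which can be read as non-binding when negative. The arrays, 3228 of them, came from the Consortium for Functional Glycomics database and were retained only where the protein sequence was available. Z-scores were averaged across arrays of the same protein sequence at different concentrations or buffers and across linkers.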"}, "[2]": {"target": "Fuc(a1-2)[Gal(a1-3)]Gal(b1-4)GlcNAc", "in_short": "as §1"}, "[3]": {"target": "Fuc(a1-2)[Gal(a1-3)]Gal(b1-4)GlcNAc(b1-2)Man(a1-3)[Fuc(a1-2)[Gal(a1-3)]Gal(b1-4)GlcNAc(b1-2)Man(a1-6)]Man(b1-4)GlcNAc(b1-4)GlcNAc", "in_short": "as §1"}, "[4]": {"target": "Fuc(a1-2)[Gal(a1-3)]Gal(b1-4)GlcNAc(b1-2)Man(a1-3)[Fuc(a1-2)[Gal(a1-3)]Gal(b1-4)GlcNAc(b1-2)Man(a1-6)]Man(b1-4)GlcNAc(b1-4)[Fuc(a1-6)]GlcNAc", "in_short": "as §1"}, "[5]": {"target": "Fuc(a1-2)[Gal(a1-3)]Gal(b1-4)GlcNAc(b1-3)GalNAc", "in_short": "as §1"}, "[6]": {"target": "Fuc(a1-2)[Gal(a1-3)]Gal(b1-4)[Fuc(a1-3)]Glc", "in_short": "as §1"}, "[7]": {"target": "Fuc(a1-2)[Gal(a1-3)]Gal(b1-4)[Fuc(a1-3)]GlcNAc", "in_short": "as §1"}, "[8]": {"target": "Fuc(a1-2)[Gal(a1-3)]Gal(b1-4)[Fuc(a1-3)]GlcNAc(b1-3)GalNAc", "in_short": "as §1"}, "[9]": {"target": "Fuc(a1-2)[Gal(a1-4)]Gal(b1-4)GlcNAc", "in_short": "as §1"}, "[10]": {"target": "Fuc(a1-2)[GalNAc(a1-3)]Gal", "in_short": "as §1"}, "[11]": {"target": "Fuc(a1-2)[GalNAc(a1-3)]Gal(b1-3)GalNAc(a1-3)[Fuc(a1-2)]Gal(b1-4)GlcNAc", "in_short": "as §1"}, "[12]": {"target": "Fuc(a1-2)[GalNAc(a1-3)]Gal(b1-3)GlcNAc", "in_short": "as §1"}, "[13]": {"target": "Fuc(a1-2)[GalNAc(a1-3)]Gal(b1-3)GlcNAc(b1-2)Man(a1-3)[Fuc(a1-2)[GalNAc(a1-3)]Gal(b1-3)GlcNAc(b1-2)Man(a1-6)]Man(b1-4)GlcNAc(b1-4)GlcNAc", "in_short": "as §1"}, "[14]": {"target": "Fuc(a1-2)[GalNAc(a1-3)]Gal(b1-3)GlcNAc(b1-2)Man(a1-3)[Fuc(a1-2)[GalNAc(a1-3)]Gal(b1-3)GlcNAc(b1-2)Man(a1-6)]Man(b1-4)GlcNAc(b1-4)[Fuc(a1-6)]GlcNAc", "in_short": "as §1"}, "[15]": {"target": "Fuc(a1-2)[GalNAc(a1-3)]Gal(b1-3)GlcNAc(b1-3)GalNAc", "in_short": "as §1"}, "[16]": {"target": "Fuc(a1-2)[GalNAc(a1-3)]Gal(b1-4)Glc", "in_short": "as §1"}, "[17]": {"target": "Fuc(a1-2)[GalNAc(a1-3)]Gal(b1-4)GlcNAc", "in_short": "as §1"}, "[18]": {"target": "Fuc(a1-2)[GalNAc(a1-3)]Gal(b1-4)GlcNAc(b1-2)Man(a1-3)[Fuc(a1-2)[GalNAc(a1-3)]Gal(b1-4)GlcNAc(b1-2)Man(a1-6)]Man(b1-4)GlcNAc(b1-4)GlcNAc", "in_short": "as §1"}, "[19]": {"target": "Fuc(a1-2)[GalNAc(a1-3)]Gal(b1-4)GlcNAc(b1-2)Man(a1-3)[Fuc(a1-2)[GalNAc(a1-3)]Gal(b1-4)GlcNAc(b1-2)Man(a1-6)]Man(b1-4)GlcNAc(b1-4)[Fuc(a1-6)]GlcNAc", "in_short": "as §1"}, "[20]": {"target": "Fuc(a1-2)[GalNAc(a1-3)]Gal(b1-4)GlcNAc(b1-3)Gal(b1-4)GlcNAc", "in_short": "as §1"}, "[21]": {"target": "Fuc(a1-2)[GalNAc(a1-3)]Gal(b1-4)GlcNAc(b1-3)Gal(b1-4)GlcNAc(b1-3)Gal(b1-4)GlcNAc", "in_short": "as §1"}, "[22]": {"target": "Fuc(a1-2)[GalNAc(a1-3)]Gal(b1-4)GlcNAc(b1-3)GalNAc", "in_short": "as §1"}, "[23]": {"target": "Fuc(a1-2)[GalNAc(a1-3)]Gal(b1-4)[Fuc(a1-3)]GlcNAc", "in_short": "as §1"}, "[24]": {"target": "Fuc(a1-2)[GalNAc(a1-3)]Gal(b1-4)[Fuc(a1-3)]GlcNAc(b1-3)GalNAc", "in_short": "as §1"}, "[25]": {"target": "Fuc(a1-2)[GalNAc(a1-4)]Gal(b1-4)GlcNAc", "in_short": "as §1"}, "[26]": {"target": "Fuc(a1-2)[GalNAc(b1-3)]Gal", "in_short": "as §1"}, "[27]": {"target": "Fuc(a1-3)GlcNAc", "in_short": "as §1"}, "[28]": {"target": "Fuc(a1-3)[Gal(b1-4)]Glc6S", "in_short": "as §1"}, "[29]": {"target": "Fuc(a1-3)[Gal(b1-4)]GlcNAc", "in_short": "as §1"}, "[30]": {"target": "Fuc(a1-3)[Gal(b1-4)]GlcNAc(b1-2)Man(a1-3)[Fuc(a1-3)[Gal(b1-4)]GlcNAc(b1-2)Man(a1-6)]Man(b1-4)GlcNAc(b1-4)GlcNAc", "in_short": "as §1"}, "[31]": {"target": "Fuc(a1-3)[Gal(b1-4)]GlcNAc(b1-2)Man(a1-3)[Fuc(a1-3)[Gal(b1-4)]GlcNAc(b1-2)Man(a1-6)]Man(b1-4)GlcNAc(b1-4)[Fuc(a1-6)]GlcNAc", "in_short": "as §1"}, "[32]": {"target": "Fuc(a1-3)[Gal(b1-4)]GlcNAc(b1-3)Gal(b1-3)[Fuc(a1-4)]GlcNAc", "in_short": "as §1"}, "[33]": {"target": "Fuc(a1-3)[Gal(b1-4)]GlcNAc(b1-3)GalNAc", "in_short": "as §1"}, "[34]": {"target": "Fuc(a1-3)[Gal(b1-4)]GlcNAc(b1-4)Gal(b1-4)[Fuc(a1-3)]GlcNAc", "in_short": "as §1"}, "[35]": {"target": "Fuc(a1-3)[Gal(b1-4)]GlcNAc(b1-4)Gal(b1-4)[Fuc(a1-3)]GlcNAc(b1-4)Gal(b1-4)[Fuc(a1-3)]GlcNAc", "in_short": "as §1"}, "[36]": {"target": "Fuc(a1-3)[Gal(b1-4)]GlcNAc(b1-6)GalNAc", "in_short": "as §1"}, "[37]": {"target": "Fuc(a1-3)[Gal(b1-4)]GlcNAc(b1-6)[Gal(b1-3)GlcNAc(b1-3)]Gal(b1-4)Glc", "in_short": "as §1"}, "[38]": {"target": "Fuc(a1-3)[Gal(b1-4)]GlcNAc(b1-6)[Neu5Ac(a2-3)Gal(b1-3)]GalNAc", "in_short": "as §1"}, "[39]": {"target": "Fuc(a1-3)[Gal(b1-4)]GlcNAc6S", "in_short": "as §1"}, "[40]": {"target": "Fuc(a1-3)[Gal3S(b1-4)]GlcNAc", "in_short": "as §1"}, "[41]": {"target": "Fuc(a1-3)[Gal3S(b1-4)]GlcNAc6S", "in_short": "as §1"}, "[42]": {"target": "Fuc(a1-3)[GalNAc(b1-4)]GlcNAc", "in_short": "as §1"}, "[43]": {"target": "Fuc(a1-4)GlcNAc", "in_short": "as §1"}, "[44]": {"target": "Fuc(b1-3)GlcNAc", "in_short": "as §1"}, "[45]": {"target": "Gal(a1-2)Gal", "in_short": "as §1"}},
  "note": "Some of the results follow.",
  "data": [
    {"binder": "CD72 ectodomain (Homo sapiens), P21854 (protein) RYLQVSQQLQQTNRVLEVTNSSLRQQLRLKITQLGQSAEDLQGSRRELAQSQEALQVEQRAHQAAEGQLQACQADRQKTKETLQSEEQQRRALEQKLSNMENRLKPFFTCGSADTCCPSGWIMHQKSCFYISLTSKNWQESQKQCETLSSKLATFSEIYPQSHSYYFLNSLLPNGGSGNSYWTGLSSNKDWKLTDDTQRTRTYAQSSKCNKVHKTWSWWTLESESCRSSLPYICEMTAFRFPD", "values": [
      {"measurement": "glycan array binding signal (z-score)", "setting": "[1]", "result": 0.3},
      {"measurement": "glycan array binding signal (z-score)", "setting": "[2]", "result": 0.108},
      {"measurement": "glycan array binding signal (z-score)", "setting": "[3]", "result": -0.575},
      {"measurement": "glycan array binding signal (z-score)", "setting": "[4]", "result": 0.336},
      {"measurement": "glycan array binding signal (z-score)", "setting": "[5]", "result": -1.34},
      {"measurement": "glycan array binding signal (z-score)", "setting": "[6]", "result": -0.565},
      {"measurement": "glycan array binding signal (z-score)", "setting": "[7]", "result": 0.333},
      {"measurement": "glycan array binding signal (z-score)", "setting": "[8]", "result": -0.443},
      {"measurement": "glycan array binding signal (z-score)", "setting": "[9]", "result": -0.271},
      {"measurement": "glycan array binding signal (z-score)", "setting": "[10]", "result": -0.253},
      {"measurement": "glycan array binding signal (z-score)", "setting": "[11]", "result": 1.44},
      {"measurement": "glycan array binding signal (z-score)", "setting": "[12]", "result": 0.299},
      {"measurement": "glycan array binding signal (z-score)", "setting": "[13]", "result": -0.961},
      {"measurement": "glycan array binding signal (z-score)", "setting": "[14]", "result": 1.28},
      {"measurement": "glycan array binding signal (z-score)", "setting": "[15]", "result": 0.401},
      {"measurement": "glycan array binding signal (z-score)", "setting": "[16]", "result": -0.821},
      {"measurement": "glycan array binding signal (z-score)", "setting": "[17]", "result": 0.03},
      {"measurement": "glycan array binding signal (z-score)", "setting": "[18]", "result": 0.299},
      {"measurement": "glycan array binding signal (z-score)", "setting": "[19]", "result": 0.886},
      {"measurement": "glycan array binding signal (z-score)", "setting": "[20]", "result": -1.23},
      {"measurement": "glycan array binding signal (z-score)", "setting": "[21]", "result": -0.098},
      {"measurement": "glycan array binding signal (z-score)", "setting": "[22]", "result": 0.592},
      {"measurement": "glycan array binding signal (z-score)", "setting": "[23]", "result": 1.95},
      {"measurement": "glycan array binding signal (z-score)", "setting": "[24]", "result": 0.623},
      {"measurement": "glycan array binding signal (z-score)", "setting": "[25]", "result": 0.065},
      {"measurement": "glycan array binding signal (z-score)", "setting": "[26]", "result": 0.747},
      {"measurement": "glycan array binding signal (z-score)", "setting": "[27]", "result": -1.12},
      {"measurement": "glycan array binding signal (z-score)", "setting": "[28]", "result": 0.961},
      {"measurement": "glycan array binding signal (z-score)", "setting": "[29]", "result": 0.013},
      {"measurement": "glycan array binding signal (z-score)", "setting": "[30]", "result": -0.986},
      {"measurement": "glycan array binding signal (z-score)", "setting": "[31]", "result": 0.575},
      {"measurement": "glycan array binding signal (z-score)", "setting": "[32]", "result": -0.626},
      {"measurement": "glycan array binding signal (z-score)", "setting": "[33]", "result": 0.853},
      {"measurement": "glycan array binding signal (z-score)", "setting": "[34]", "result": 0.511},
      {"measurement": "glycan array binding signal (z-score)", "setting": "[35]", "result": -1.08},
      {"measurement": "glycan array binding signal (z-score)", "setting": "[36]", "result": 1.78},
      {"measurement": "glycan array binding signal (z-score)", "setting": "[37]", "result": -0.846},
      {"measurement": "glycan array binding signal (z-score)", "setting": "[38]", "result": -0.261},
      {"measurement": "glycan array binding signal (z-score)", "setting": "[39]", "result": 0.197},
      {"measurement": "glycan array binding signal (z-score)", "setting": "[40]", "result": 0.084},
      {"measurement": "glycan array binding signal (z-score)", "setting": "[41]", "result": -1.53},
      {"measurement": "glycan array binding signal (z-score)", "setting": "[42]", "result": -1.58},
      {"measurement": "glycan array binding signal (z-score)", "setting": "[43]", "result": -0.976},
      {"measurement": "glycan array binding signal (z-score)", "setting": "[44]", "result": -2.09},
      {"measurement": "glycan array binding signal (z-score)", "setting": "[45]", "result": 0.56}
    ]}
  ]
}
